Test results from PubChem BioAssay AID504332 (National Center for Advancing Translational Sciences (NCATS), 2011).
Most of the hits are listed elsewhere, so they are rarer here than in the full data. Inconclusive results are not listed. Activity calls are given as the source filed them. Calls come from the whole dose curve; as a rule, active = well fitted inhibition curve with a large enough effect; inconclusive = small, poorly fitted or top-dose-only effect; inactive = no such curve, though single readings can be large or run the other way.

The chains behind the UniProt entries cited, without tags or fusion partners. Where a name states a change or a piece, a line headed by the entry shows the natural chain unless it says otherwise.
UniProt Q96KQ7: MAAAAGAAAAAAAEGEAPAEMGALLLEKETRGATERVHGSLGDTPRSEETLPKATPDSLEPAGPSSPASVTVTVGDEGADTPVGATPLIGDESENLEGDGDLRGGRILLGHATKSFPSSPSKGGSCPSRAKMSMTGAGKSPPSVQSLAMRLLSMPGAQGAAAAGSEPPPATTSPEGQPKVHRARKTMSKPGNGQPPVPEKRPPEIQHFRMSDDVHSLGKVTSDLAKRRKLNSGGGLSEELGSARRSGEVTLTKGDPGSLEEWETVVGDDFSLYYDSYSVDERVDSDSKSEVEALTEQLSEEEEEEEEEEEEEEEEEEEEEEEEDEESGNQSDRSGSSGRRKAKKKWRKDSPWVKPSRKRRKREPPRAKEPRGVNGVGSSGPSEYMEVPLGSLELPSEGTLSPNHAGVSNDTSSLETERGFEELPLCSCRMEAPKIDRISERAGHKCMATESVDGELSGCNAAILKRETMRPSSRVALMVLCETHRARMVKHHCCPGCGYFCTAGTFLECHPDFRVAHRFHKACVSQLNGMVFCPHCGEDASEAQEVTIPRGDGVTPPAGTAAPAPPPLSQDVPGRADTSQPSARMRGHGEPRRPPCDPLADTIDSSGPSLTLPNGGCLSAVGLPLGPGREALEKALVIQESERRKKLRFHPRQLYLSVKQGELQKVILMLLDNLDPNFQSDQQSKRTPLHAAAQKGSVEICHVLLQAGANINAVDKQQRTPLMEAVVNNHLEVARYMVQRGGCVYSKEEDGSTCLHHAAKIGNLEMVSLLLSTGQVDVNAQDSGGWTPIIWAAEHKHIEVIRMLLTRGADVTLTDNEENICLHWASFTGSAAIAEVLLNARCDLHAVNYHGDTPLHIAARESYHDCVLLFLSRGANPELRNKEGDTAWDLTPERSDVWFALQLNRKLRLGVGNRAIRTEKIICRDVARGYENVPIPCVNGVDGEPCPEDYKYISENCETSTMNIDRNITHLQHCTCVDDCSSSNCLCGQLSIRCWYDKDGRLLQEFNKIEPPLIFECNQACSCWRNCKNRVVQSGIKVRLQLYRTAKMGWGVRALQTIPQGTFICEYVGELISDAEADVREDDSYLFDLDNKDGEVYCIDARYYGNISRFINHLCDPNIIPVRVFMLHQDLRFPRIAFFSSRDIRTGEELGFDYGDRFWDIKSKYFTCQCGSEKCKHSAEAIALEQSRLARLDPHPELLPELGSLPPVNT

Target: Histone-lysine N-methyltransferase EHMT2 (Homo sapiens) (UniProt Q96KQ7)
Assay: qHTS Assay for Inhibitors of Histone Lysine Methyltransferase G9a; note: nearly all actives have a fitted effect of over 75% in size
Details: G9a H3K9 monomethylation, AlphaScreen, 2 h
Description: Methylated lysines, on the N-terminal tails of histone proteins serve as epigenetic markers to recruit factors that can then modify local chromatin structure to lead to functional consequences. G9a and other members of the SUV39 family of the SET domain-containing superfamily of histone lysine methyltransferases (HMT) have been identified to specifically methylate Lys9 of histone H3 (H3K9). G9a catalyzes the mono- and di-methylation of H3K9 in mammalian euchromatic regions, where the resulting H3K9me2 is indicative of transcriptional repression. […] The inhibition of G9a will result in transcriptional activation and work synergistically with DNA methyltransferase and histone deacetylase inhibitors, to kill cancer cells. This qHTS assay for identification of G9a inhibitors is a chemiluminescence based AlphaScreen (PerkinElmer). Methylation of biotinylated-histone peptide is measured through specific antibody-based detection, in conjunction with streptavidin-coated donor and anti-IgG antibody-coated acceptor beads. The method is particularly well suited for detection of inhibitors acting by the desired histone peptide competitive mechanism and is applicable to testing other HMTs. Although AlphaScreen has significant advantages with its utility in a variety of epigenetic target assays, the primary screening data provided in this deposition should be used with caution due to the prevalence of screening artifacts. An AlphaScreen counterscreen is highly recommended to be run against any putative actives to eliminate non specific artifacts. Alternatively, one can use other AlphaScreen assays in PubChem to filter out promiscuous hits. Quinn et al. A chemiluminescence-based method for identification of histone lysine methyltransferase inhibitors. Mol Biosyst 6(5): 782-8. 2010. PMID: 20567762 [2] Baell,Holloway. New substructure filters for removal of pan assay interference compounds (PAINS) from screening libraries and for their exclusion in bioassays. J Med Chem. 53(7):2719-40. 2010. PMID: 20131845 NIH Molecular Libraries Probe Production Network [MLPCN] NIH Chemical Genomics Center [NCGC] Structural Genomics Consortium (SGC) NIH Grant: 5U54 MH084681-02
To each well of a 1,536w plate, 2ul of HMT enzyme (final 20nM) were added, using a nanoliter dispenser. The G9a- and GLP-inhibitor BIX-01294 (CID: 25150857) are used as an intraplate control, with a 16-point titration in duplicate. A Kalypsys pin-tool transferred 23nl of library compound solution in DMSO to each well. Following a 15 min incubation of enzyme with compounds at room temperature, 1ul mixture of b-H3K9 peptide substrate (final 500nM) and SAM cofactor (final 20uM) were added. Reactions were allowed to proceed at room temperature for 2 hours. Methylated b-H3K9 peptide product was detected with 0.5 ug/mL rabbit polyclonal anti-monomethyl histone H3K9 antibody (Abcam Inc., Cambridge, MA) and 20 ug/mL each streptavidin-coated donor and anti-rabbit IgG acceptor AlphaScreen beads. Antibody and beads were added in a 1ul dispense, for a final volume of 4ul, and plates were incubated, protected from the light, for 10 min at room temperature. Microplates were then read on an EnVision multilabel plate reader using the 1,536 plate HTS AlphaScreen aperture (excitation time 80 ms, measurement time 240 ms).
% is set by controls: 0 for no effect and ±100 for the full control effect.

CN1C2CCC1CC(OC(=O)C(O)c1ccccc1)C2 (stereo not given)
activity, negative = inhibition (at 12.7 µM (top of the series)): inactive: 13.6%

Cc1cc(=O)oc2cc(OCc3ccccc3)ccc12
activity, negative = inhibition (at 102 µM (top of the series)): inactive: 63.6%

CN1[C@@H]2CC[C@H]1CC(OC(=O)[C@@H](O)c1ccccc1)C2 (stereo not given in full)
activity, negative = inhibition (at 2.33 µM (top of the series)): inactive: -32.6%
activity, negative = inhibition (at 59 µM (top of the series)): inactive: -17.9%

CN1[C@@H]2CC[C@H]1CC(OC(=O)C(O)c1ccccc1)C2 (stereo not given in full)
activity, negative = inhibition (at 59 µM (top of the series)): inactive: -4.58%
